# Assay results reported in the supplement of paper PMC12823440, “Inhibitors supercharge kinase turnover through native proteolytic circuits” (Nature, 2025).
# Amino acid sequences for entries named in this document (tags omitted). A change or cut given only in a name is not applied to a line headed by its entry.
# UniProt P00519, whole entry: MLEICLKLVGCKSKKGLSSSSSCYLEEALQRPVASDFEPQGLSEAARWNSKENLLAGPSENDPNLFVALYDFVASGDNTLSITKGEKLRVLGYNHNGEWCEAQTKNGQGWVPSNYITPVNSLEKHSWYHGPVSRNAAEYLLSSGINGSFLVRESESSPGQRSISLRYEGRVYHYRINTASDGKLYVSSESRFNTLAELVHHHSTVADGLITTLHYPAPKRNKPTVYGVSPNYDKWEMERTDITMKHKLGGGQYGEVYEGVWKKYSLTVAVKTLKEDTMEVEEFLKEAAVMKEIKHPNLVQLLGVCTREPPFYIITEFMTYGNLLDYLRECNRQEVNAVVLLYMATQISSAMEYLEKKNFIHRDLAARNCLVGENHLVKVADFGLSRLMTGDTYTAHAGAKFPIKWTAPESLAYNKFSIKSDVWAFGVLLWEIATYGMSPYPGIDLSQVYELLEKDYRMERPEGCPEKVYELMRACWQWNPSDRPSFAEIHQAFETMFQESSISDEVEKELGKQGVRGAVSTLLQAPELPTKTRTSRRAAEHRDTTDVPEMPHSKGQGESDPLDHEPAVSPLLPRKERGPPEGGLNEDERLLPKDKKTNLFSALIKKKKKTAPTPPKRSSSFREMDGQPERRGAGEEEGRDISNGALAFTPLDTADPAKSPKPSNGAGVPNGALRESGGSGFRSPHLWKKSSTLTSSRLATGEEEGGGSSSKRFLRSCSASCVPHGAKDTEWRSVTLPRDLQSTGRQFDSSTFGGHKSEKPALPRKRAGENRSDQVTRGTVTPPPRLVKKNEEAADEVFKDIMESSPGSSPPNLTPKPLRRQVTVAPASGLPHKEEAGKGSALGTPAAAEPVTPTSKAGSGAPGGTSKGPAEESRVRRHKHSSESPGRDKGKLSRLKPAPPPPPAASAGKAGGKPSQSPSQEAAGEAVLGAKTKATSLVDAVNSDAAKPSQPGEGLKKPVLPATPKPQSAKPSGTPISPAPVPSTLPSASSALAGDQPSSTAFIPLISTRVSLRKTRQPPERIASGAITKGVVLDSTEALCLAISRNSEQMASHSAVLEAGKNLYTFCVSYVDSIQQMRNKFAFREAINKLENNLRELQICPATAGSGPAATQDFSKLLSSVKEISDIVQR
# UniProt P31749: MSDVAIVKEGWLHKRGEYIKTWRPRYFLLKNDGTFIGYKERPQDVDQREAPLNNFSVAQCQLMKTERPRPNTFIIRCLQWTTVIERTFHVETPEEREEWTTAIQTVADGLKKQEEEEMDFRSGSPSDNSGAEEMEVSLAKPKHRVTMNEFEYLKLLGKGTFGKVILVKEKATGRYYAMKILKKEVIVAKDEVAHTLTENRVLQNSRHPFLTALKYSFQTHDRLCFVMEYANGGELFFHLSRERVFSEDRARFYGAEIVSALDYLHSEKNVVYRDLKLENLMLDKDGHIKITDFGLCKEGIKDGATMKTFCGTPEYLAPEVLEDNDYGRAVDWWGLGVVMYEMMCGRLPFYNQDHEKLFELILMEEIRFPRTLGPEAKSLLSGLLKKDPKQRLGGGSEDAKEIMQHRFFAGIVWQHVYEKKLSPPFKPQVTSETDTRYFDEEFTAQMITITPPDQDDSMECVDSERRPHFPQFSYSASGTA
# UniProt P10398: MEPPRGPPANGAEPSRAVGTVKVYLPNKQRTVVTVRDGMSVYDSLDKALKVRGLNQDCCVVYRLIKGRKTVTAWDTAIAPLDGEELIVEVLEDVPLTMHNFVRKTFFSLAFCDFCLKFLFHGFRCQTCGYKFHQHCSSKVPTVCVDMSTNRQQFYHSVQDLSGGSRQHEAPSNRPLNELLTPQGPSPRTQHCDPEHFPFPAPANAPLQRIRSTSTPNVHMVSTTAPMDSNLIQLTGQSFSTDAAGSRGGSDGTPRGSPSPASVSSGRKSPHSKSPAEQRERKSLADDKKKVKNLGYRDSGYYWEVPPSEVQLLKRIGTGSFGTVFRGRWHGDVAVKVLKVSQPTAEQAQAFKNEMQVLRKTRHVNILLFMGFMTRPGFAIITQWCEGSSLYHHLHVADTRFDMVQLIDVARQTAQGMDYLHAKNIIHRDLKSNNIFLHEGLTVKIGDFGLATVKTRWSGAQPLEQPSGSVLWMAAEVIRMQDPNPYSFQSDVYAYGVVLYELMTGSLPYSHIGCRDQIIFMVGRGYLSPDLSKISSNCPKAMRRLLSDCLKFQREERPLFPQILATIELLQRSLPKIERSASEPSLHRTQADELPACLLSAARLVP
# UniProt Q96GD4, whole entry: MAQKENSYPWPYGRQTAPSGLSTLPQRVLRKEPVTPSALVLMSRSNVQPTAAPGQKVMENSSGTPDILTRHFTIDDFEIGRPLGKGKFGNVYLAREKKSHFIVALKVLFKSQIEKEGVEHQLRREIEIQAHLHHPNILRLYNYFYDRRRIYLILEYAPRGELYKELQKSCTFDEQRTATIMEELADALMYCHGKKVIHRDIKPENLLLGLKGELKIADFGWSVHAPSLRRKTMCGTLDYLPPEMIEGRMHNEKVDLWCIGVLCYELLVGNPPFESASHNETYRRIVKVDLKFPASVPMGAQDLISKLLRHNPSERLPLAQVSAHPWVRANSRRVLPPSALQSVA
# UniProt P51451: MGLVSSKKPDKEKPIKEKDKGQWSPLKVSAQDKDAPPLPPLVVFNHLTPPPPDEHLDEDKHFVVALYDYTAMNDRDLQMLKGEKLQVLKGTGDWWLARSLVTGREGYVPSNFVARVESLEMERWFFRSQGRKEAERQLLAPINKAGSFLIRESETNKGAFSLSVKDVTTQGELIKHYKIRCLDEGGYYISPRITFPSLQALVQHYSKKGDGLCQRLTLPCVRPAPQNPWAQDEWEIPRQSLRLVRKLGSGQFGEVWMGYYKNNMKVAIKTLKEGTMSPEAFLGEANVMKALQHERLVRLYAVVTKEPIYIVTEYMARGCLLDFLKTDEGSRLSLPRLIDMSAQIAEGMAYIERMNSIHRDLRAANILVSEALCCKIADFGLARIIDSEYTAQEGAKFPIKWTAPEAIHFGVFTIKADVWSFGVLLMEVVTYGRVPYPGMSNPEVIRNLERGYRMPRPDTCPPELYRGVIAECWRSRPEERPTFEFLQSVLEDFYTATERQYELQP
# UniProt P51813: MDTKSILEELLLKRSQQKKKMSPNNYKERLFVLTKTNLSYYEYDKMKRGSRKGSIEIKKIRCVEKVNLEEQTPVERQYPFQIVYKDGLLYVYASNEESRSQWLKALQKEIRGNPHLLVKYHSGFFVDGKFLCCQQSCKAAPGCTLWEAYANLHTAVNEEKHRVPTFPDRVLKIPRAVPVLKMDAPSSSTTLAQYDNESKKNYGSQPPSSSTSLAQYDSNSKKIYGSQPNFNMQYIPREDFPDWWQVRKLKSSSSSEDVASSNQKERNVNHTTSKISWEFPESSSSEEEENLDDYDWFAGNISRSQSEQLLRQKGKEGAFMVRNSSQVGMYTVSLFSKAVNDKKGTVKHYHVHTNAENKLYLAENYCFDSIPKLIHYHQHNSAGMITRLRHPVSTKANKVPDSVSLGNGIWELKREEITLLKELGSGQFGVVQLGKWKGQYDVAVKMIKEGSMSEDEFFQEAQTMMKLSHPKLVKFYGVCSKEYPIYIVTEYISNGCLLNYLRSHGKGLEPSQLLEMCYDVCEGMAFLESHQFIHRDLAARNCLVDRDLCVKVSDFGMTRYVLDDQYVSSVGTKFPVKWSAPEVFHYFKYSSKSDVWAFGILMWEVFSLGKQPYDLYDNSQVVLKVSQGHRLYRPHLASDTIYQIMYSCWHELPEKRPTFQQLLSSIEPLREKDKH
# UniProt P15056, whole entry, looked up: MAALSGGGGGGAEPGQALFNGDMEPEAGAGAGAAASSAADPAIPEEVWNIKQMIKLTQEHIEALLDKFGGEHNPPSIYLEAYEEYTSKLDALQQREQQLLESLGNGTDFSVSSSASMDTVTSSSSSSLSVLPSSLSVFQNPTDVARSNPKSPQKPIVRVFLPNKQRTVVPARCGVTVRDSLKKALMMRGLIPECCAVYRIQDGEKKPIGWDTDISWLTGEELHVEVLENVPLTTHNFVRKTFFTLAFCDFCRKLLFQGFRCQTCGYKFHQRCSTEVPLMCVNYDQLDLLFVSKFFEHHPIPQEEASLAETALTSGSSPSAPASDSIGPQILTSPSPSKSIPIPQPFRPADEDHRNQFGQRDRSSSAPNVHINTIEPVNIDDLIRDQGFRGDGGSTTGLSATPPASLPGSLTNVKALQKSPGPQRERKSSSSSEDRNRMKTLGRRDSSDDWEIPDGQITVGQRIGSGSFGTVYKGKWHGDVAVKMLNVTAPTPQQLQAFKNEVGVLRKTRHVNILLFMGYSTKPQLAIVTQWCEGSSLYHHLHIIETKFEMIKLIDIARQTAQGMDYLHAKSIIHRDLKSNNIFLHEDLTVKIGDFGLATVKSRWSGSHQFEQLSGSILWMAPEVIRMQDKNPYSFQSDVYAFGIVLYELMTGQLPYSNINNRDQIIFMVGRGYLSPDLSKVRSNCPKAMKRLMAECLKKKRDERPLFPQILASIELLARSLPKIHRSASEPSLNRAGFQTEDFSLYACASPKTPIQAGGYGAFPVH
# UniProt Q9UQM7, whole entry: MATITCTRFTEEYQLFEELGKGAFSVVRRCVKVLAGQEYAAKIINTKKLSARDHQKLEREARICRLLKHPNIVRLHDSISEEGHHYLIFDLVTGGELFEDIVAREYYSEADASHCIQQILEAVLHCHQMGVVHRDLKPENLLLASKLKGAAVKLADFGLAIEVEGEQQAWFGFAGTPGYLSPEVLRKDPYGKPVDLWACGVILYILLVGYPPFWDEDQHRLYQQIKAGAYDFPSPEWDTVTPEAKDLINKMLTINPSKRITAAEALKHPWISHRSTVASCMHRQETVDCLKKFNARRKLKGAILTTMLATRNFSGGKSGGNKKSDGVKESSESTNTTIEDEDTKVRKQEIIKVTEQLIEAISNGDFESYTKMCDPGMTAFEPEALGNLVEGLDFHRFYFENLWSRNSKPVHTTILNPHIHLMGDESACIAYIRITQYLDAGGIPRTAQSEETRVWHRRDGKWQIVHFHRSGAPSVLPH
# UniProt Q13555: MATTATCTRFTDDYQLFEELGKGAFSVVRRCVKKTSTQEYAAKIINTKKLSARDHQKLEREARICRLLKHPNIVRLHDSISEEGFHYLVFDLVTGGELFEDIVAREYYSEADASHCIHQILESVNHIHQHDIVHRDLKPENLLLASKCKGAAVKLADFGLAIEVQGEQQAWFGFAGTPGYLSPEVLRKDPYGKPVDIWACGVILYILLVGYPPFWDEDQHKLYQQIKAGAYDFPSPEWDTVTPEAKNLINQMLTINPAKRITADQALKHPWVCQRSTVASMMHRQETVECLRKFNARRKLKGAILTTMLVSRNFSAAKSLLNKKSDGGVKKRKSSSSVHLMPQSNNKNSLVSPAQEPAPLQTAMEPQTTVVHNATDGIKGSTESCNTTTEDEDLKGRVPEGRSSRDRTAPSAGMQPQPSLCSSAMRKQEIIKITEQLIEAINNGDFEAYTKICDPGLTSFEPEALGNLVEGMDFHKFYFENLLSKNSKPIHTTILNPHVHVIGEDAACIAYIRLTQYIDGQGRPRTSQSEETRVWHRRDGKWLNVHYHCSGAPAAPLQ
# UniProt Q15131: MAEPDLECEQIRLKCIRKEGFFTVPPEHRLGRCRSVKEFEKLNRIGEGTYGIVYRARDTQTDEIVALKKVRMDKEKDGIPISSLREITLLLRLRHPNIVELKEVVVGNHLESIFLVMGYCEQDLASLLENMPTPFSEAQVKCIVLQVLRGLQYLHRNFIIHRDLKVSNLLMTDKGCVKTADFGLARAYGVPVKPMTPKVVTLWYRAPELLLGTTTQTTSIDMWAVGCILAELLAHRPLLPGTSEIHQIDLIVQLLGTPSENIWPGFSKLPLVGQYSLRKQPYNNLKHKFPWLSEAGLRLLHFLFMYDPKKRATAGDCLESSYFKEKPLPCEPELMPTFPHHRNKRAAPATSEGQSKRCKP
# UniProt Q00526: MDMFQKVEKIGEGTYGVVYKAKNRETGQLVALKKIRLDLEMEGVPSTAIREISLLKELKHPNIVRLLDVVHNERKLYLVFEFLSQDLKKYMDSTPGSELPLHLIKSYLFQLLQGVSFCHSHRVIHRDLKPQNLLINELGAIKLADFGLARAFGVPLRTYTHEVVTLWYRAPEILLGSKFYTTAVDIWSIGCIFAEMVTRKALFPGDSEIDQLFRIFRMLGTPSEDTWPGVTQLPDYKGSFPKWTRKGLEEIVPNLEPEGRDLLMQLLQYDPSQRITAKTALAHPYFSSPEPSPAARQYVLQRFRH
# UniProt Q00535, whole entry, looked up: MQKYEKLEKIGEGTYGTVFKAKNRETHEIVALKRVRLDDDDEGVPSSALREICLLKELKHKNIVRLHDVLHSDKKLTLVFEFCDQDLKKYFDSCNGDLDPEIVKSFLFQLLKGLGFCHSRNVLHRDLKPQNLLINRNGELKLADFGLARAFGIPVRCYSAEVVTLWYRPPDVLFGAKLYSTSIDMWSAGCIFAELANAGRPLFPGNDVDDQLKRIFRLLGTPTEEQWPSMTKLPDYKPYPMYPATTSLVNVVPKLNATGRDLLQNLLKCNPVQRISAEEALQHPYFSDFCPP
# This is one part of the list. Hit calls seldom repeat between salt and free forms of one compound.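 In K562 cells expressing nanoluciferase-fused kinases, luminescence was recorded at 4 h intervals between 2 and 18 h, normalized as percent of control with DMSO at 100% and a positive control at 0%. A significant (2 sigma) signal drop marks a time point as decreased. The authors' rule for a hit is not shown and takes in more than the number of time points.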
# Key:
# Experiment in all cases: kinase-Nluc reporter destabilization hit call (1 = scored as downregulated) (binary); higher = compound decreases kinase abundance
# Settings in all cases: K562; 2-18 h
# ABL1 = ABL1 (UniProt P00519)
# AKT1 = AKT1 (UniProt P31749)
# ALK = ALK (UniProt Q9UM73)
# ARAF = ARAF (UniProt P10398)
# AURKA = AURKA (UniProt O14965)
# AURKB = AURKB (UniProt Q96GD4)
# AURKC = AURKC (UniProt Q9UQB9)
# BLK = BLK (UniProt P51451)
# BMX = BMX (UniProt P51813)
# BRAF = BRAF (UniProt P15056)
# BRAF_V600E = tested on: BRAF_V600E
# BTK = BTK (UniProt Q06187)
# CAMK2A = CAMK2A (UniProt Q9UQM7)
# CAMK2G = CAMK2G (UniProt Q13555)
# CDK10 = CDK10 (UniProt Q15131)
# CDK2 = CDK2 (UniProt P24941)
# CDK3 = CDK3 (UniProt Q00526)
# CDK4 = CDK4 (UniProt P11802)
# CDK5 = CDK5 (UniProt Q00535)
# CDK6 = CDK6 (UniProt Q00534)
SMILES,kinase-Nluc reporter destabilization hit call (ABL1),kinase-Nluc reporter destabilization hit call (AKT1),kinase-Nluc reporter destabilization hit call (ALK),kinase-Nluc reporter destabilization hit call (ARAF),kinase-Nluc reporter destabilization hit call (AURKA),kinase-Nluc reporter destabilization hit call (AURKB),kinase-Nluc reporter destabilization hit call (AURKC),kinase-Nluc reporter destabilization hit call (BLK),kinase-Nluc reporter destabilization hit call (BMX),kinase-Nluc reporter destabilization hit call (BRAF),kinase-Nluc reporter destabilization hit call (BRAF_V600E),kinase-Nluc reporter destabilization hit call (BTK),kinase-Nluc reporter destabilization hit call (CAMK2A),kinase-Nluc reporter destabilization hit call (CAMK2G),kinase-Nluc reporter destabilization hit call (CDK10),kinase-Nluc reporter destabilization hit call (CDK2),kinase-Nluc reporter destabilization hit call (CDK3),kinase-Nluc reporter destabilization hit call (CDK4),kinase-Nluc reporter destabilization hit call (CDK5),kinase-Nluc reporter destabilization hit call (CDK6)
CC(C)C(=O)Nc1ncc(-c2cc(C(F)F)nn2-c2c(Cl)cccc2Cl)s1 (10 µM),inactive: 0,inactive: 0,inactive: 0,inactive: 0,inactive: 0,inactive: 0,inactive: 0,inactive: 0,active: 1,inactive: 0,inactive: 0,inactive: 0,inactive: 0,inactive: 0,inactive: 0,inactive: 0,inactive: 0,inactive: 0,inactive: 0,inactive: 0
COc1cc(C)c(Sc2cnc(NC(=O)c3ccc(CNC(C)C(C)(C)C)cc3)s2)cc1C(=O)N1CCN(C(C)=O)CC1 (stereo not given) (2.5 µM),inactive: 0,inactive: 0,inactive: 0,inactive: 0,inactive: 0,inactive: 0,inactive: 0,inactive: 0,inactive: 0,inactive: 0,inactive: 0,inactive: 0,inactive: 0,inactive: 0,inactive: 0,inactive: 0,inactive: 0,inactive: 0,inactive: 0,inactive: 0
Cc1c[nH]c(/C=C2\C(=O)Nc3ccccc32)c1CCC(=O)O (10 µM),inactive: 0,inactive: 0,inactive: 0,inactive: 0,inactive: 0,inactive: 0,inactive: 0,inactive: 0,inactive: 0,inactive: 0,inactive: 0,inactive: 0,inactive: 0,inactive: 0,inactive: 0,inactive: 0,inactive: 0,inactive: 0,inactive: 0,inactive: 0
O=C1Cc2c([nH]c3ccc(Br)cc23)-c2ncccc2N1 [1-Azakenpaullone] (10 µM),inactive: 0,inactive: 0,inactive: 0,inactive: 0,inactive: 0,inactive: 0,inactive: 0,inactive: 0,inactive: 0,inactive: 0,inactive: 0,inactive: 0,inactive: 0,inactive: 0,inactive: 0,inactive: 0,inactive: 0,inactive: 0,inactive: 0,inactive: 0
FC(F)(F)c1ccc(CNc2ccc(Cc3c[nH]c4ncc(Cl)cc34)cn2)cc1 (10 µM),inactive: 0,inactive: 0,inactive: 0,inactive: 0,inactive: 0,inactive: 0,inactive: 0,inactive: 0,inactive: 0,inactive: 0,inactive: 0,inactive: 0,inactive: 0,inactive: 0,inactive: 0,inactive: 0,inactive: 0,inactive: 0,inactive: 0,inactive: 0
O=c1oc2c(O)c(O)cc3c(=O)oc4c(O)c(O)cc1c4c23 [Ellagic acid] (10 µM),inactive: 0,inactive: 0,inactive: 0,inactive: 0,inactive: 0,inactive: 0,inactive: 0,inactive: 0,inactive: 0,inactive: 0,inactive: 0,inactive: 0,inactive: 0,inactive: 0,inactive: 0,inactive: 0,inactive: 0,inactive: 0,inactive: 0,inactive: 0
COc1ccc(C=C(C#N)c2cccnc2)cc1OC (10 µM),inactive: 0,inactive: 0,inactive: 0,inactive: 0,inactive: 0,inactive: 0,inactive: 0,inactive: 0,inactive: 0,inactive: 0,inactive: 0,inactive: 0,inactive: 0,inactive: 0,inactive: 0,inactive: 0,inactive: 0,inactive: 0,inactive: 0,inactive: 0
CCN1CCN(Cc2ccc(C(=O)Nc3ccc(C)c(Oc4ccc5c(c4)CC(=O)N5)c3)cc2C(F)(F)F)CC1 (2.5 µM),inactive: 0,inactive: 0,inactive: 0,inactive: 0,inactive: 0,inactive: 0,inactive: 0,inactive: 0,inactive: 0,inactive: 0,inactive: 0,inactive: 0,inactive: 0,inactive: 0,inactive: 0,inactive: 0,inactive: 0,inactive: 0,inactive: 0,inactive: 0
Cc1ccc(NC(=O)Nc2nnc(Sc3ncnc4cc(OCCCN5CCOCC5)ccc34)s2)cc1 (10 µM),inactive: 0,inactive: 0,inactive: 0,inactive: 0,inactive: 0,inactive: 0,inactive: 0,inactive: 0,inactive: 0,inactive: 0,inactive: 0,inactive: 0,inactive: 0,inactive: 0,inactive: 0,inactive: 0,inactive: 0,inactive: 0,inactive: 0,inactive: 0
C[C@H](NC(=O)/C(C#N)=C/c1cccc(Br)n1)c1ccccc1 (2.5 µM),inactive: 0,inactive: 0,inactive: 0,inactive: 0,inactive: 0,inactive: 0,inactive: 0,inactive: 0,inactive: 0,inactive: 0,inactive: 0,inactive: 0,inactive: 0,inactive: 0,inactive: 0,inactive: 0,inactive: 0,inactive: 0,inactive: 0,inactive: 0

# Part of the list above, reduced to kinase-Nluc reporter destabilization hit call (BRAF) and kinase-Nluc reporter destabilization hit call (CDK6):
SMILES | kinase-Nluc reporter destabilization hit call (BRAF) | kinase-Nluc reporter destabilization hit call (CDK6)
Cc1ccc(NC(=O)Nc2nnc(Sc3ncnc4cc(OCCCN5CCOCC5)ccc34)s2)cc1 (10 µM) | inactive: 0 | inactive: 0
C[C@H](NC(=O)/C(C#N)=C/c1cccc(Br)n1)c1ccccc1 (2.5 µM) | inactive: 0 | inactive: 0
